This passage reports MIC results from patent US10946051B2, “Strain of Bifidobacterium animalis subsp. lactis CECT 8145 and use thereof for the treatment and/or prevention of excess weight and obesity and associated diseases” (priority 2013, dated 2021).

Converted amounts (≈) assume the structure as drawn.

The test system of this assay is strain BIF-1. Nature of the assay: Antibiotic resistance profile (minimum inhibitory concentration). Type of assay: cell-based, Bifidobacterium animalis subsp. lactis. The following applies: Bifidobacterium animalis, BIF1; read-out: CMI (minimum inhibitory concentration of antibiotics). Here is the method:
Specifically, the production of unwanted metabolites was evaluated: lactic acid isomer production (Table 9), bile-salt deconjugation (Table 10) and biogenic amine production (Table 11), and the antibiotic resistance profile (Table 12).

Consider `CCC[C@@H]1C[C@@H](C(=O)N[C@@H]([C@H]2O[C@H](SC)[C@H](O)[C@@H](O)[C@H]2O)[C@H](C)Cl)N(C)C1` [Clindamycin], for which the MIC was found to be 0.25 µg/mL (≈ 0.588 µM).
